# Assay results published in the supplement of paper PMC10735217.
# Counter-ions that a name gives are not always drawn. The list shows a part of the results. This data set is noisy: repeats of one test often differ as much as different tests do.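 In a drug-repurposing library screen, luminescence reads luciferase driven by eight TEAD-binding elements, stably integrated into human kidney-derived cells. Compounds scoring over five robust Z scores above the plate mean are called hits.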
# Test system: HEK293A TEAD-LUC reporter
# Assay: TEAD-luciferase reporter activity (YAP activation), robust Z score vs plate; higher = stronger YAP/TEAD activation
# Settings: 24 h
Compound,TEAD-luciferase reporter activity (compound concentration: 200 nM),TEAD-luciferase reporter activity (compound concentration: 2 uM),TEAD-luciferase reporter activity (compound concentration: 10 uM)
C[C@]12CC[C@H](O)C[C@H]1CC[C@@H]1[C@@H]2CC[C@]2(C)[C@@H](c3ccc(=O)oc3)C[C@H]3O[C@]132 [Bufogenin],inactive: 1.66,inactive: 3.82,active: 15.2
NC(=O)[C@@H](CC1CC1)[C@@H](CCC(F)(F)F)C(=O)N[C@H]1N=C(c2ccccc2)c2cccc(F)c2NC1=O,inactive: -1.2,inactive: 0.06,inactive: -0.205
COc1ccc(NC(=O)N2CCc3c(sc4c3C(c3ccccc3Cl)=NCc3nnc(C)n3-4)C2)cc1 [Setipafant],inactive: -1.14,inactive: 0.074,inactive: 0.479
COc1cc(OC2CCN(C(C)=O)CC2)ccc1C(=O)N1CCC(N2C(=O)OCc3ccccc32)CC1,inactive: -1.97,inactive: -0.205,inactive: -1.33
COc1cc(N)c(Cl)cc1C(=O)N[C@@H]1CCN(CCCCCC(=O)O[C@H]2CN3CCC2CC3)C[C@@H]1OC [Naronapride],inactive: 1.63,inactive: 0.0626,inactive: -1.63
N#CCCN1C(=O)C(O)N=C(c2ccccc2F)c2cc(Cl)ccc21 (configuration not stated) [cinolazepam],inactive: 1.32,inactive: -1.65,inactive: 1.45
O=C(Nc1ccccc1)N[C@@H]1C(=O)N(CC23CC4CC(CC(C4)C2)C3)c2ccccc2N(c2ccccc2)C1=O,inactive: -1.72,inactive: -1.33,inactive: -0.887
Cc1ccc(-c2ccc(OC3CN4CCC3CC4)cn2)cc1 (configuration not stated),inactive: 0.157,inactive: -1.91,inactive: -1.61
CC1=C(CC/C(C)=C/CCC2=CC[C@H](C3=CC(=O)O[C@H]3O)O[C@H]2O)C(C)(C)CCC1 [Manoalide],inactive: -0.963,inactive: -0.772,inactive: 0.307
C=CCCCCCCCCC(=O)O[C@H]1CC[C@H]2[C@@H]3CCC4=CC(=O)C=C[C@]4(C)[C@H]3CC[C@]12C [Bolde    Undecylenate],,inactive: 0.356,
C=CCCCCCCCCC(=O)O[C@H]1CC[C@H]2[C@@H]3CCC4=CC(=O)C=C[C@]4(C)[C@H]3CC[C@]12C [Bolde Undecylenate],inactive: 2.97,,
C=CCCCCCCCCC(=O)O[C@H]1CC[C@H]2[C@@H]3CCC4=CC(=O)C=C[C@]4(C)[C@H]3CC[C@]12C [Bolde   Undecylenate],,,inactive: 0.89
N#Cc1cncc(N2C[C@H]3CNC[C@H]32)c1,active: 5.05,inactive: -1.36,inactive: -0.953
O=C1[O][Pt]2([NH][C@@H]3CCCC[C@H]3[NH]2)[O]C1=O,inactive: 4.24,inactive: 0.292,inactive: -0.0318
CCc1c(C(=O)C(N)=O)c2c(OCC(=O)O)cccc2n1Cc1ccccc1 [Varespladib],,inactive: -1.35,
CCc1c(C(=O)C(N)=O)c2c(OCC(=O)O)cccc2n1Cc1ccccc1,inactive: 0.622,,inactive: 1.37
CC(=O)OC(c1ccccc1)C1CCCCN1 (configuration not stated),inactive: 0.261,inactive: 0.147,inactive: -0.771
NC(=O)CN1CC(c2ccccc2)CC1=O (configuration not stated) [Fonturacetam],inactive: -1.86,inactive: 2.08,inactive: -1.73
CCN(CC)CC(=O)Nc1ccc(Cl)cc1C(=O)c1ccccc1,active: 13.1,inactive: -0.38,inactive: 2.67
O=C(O)CCSC1c2ccccc2COc2ccc(OCc3ccc4cc(F)c(Cl)cc4n3)cc21 (configuration not stated),inactive: 0.605,inactive: -0.0354,inactive: -0.888
CCCCCn1cc(C(=O)C23CC4CC(CC(C4)C2)C3)c2ccccc21,inactive: -0.833,inactive: 0.115,inactive: 0.254
O=[N+]([O-])c1ccc([As](=O)(O)O)cc1,inactive: 0.546,inactive: 3.82,inactive: -1.39
COC1C(OC(C)=O)C(C)OC(OC2CC[C@@]3(C=O)[C@@H](CCC4[C@@H]3CC[C@]3(C)[C@H](c5ccc(=O)oc5)CCC43O)C2)C1OC(C)=O (some centres not stated),active: 14.7,inactive: -3.15,active: 10.6
CCCN(CCC)[C@@H]1CCc2c(OC)cccc2[C@@H]1C,inactive: 3.28,inactive: -1.6,inactive: 0.237
CC(C)[C@]12O[C@H]1[C@@H]1O[C@]13[C@]1(O[C@H]1C[C@H]1C4=C(CC[C@@]13C)C(=O)OC4)[C@@H]2O,inactive: -1.46,,inactive: -1.87
CC(C)[C@]12O[C@H]1[C@@H]1O[C@]13[C@]1(O[C@H]1C[C@H]1C4=C(CC[C@@]13C)C(=O)OC4)[C@@H]2O [Triptolide],,inactive: -3.77,
CN1C[C@@H](NS(=O)(=O)N(C)C)C[C@@H]2c3cccc4c3c(cn4C)C[C@H]21 [Mesulergine HCl],inactive: 3.21,,inactive: 1.42
CN1C[C@@H](NS(=O)(=O)N(C)C)C[C@@H]2c3cccc4c3c(cn4C)C[C@H]21,,inactive: -2.05,
Oc1nc2cccc(N3CCNCC3)c2o1,inactive: -2.21,inactive: -1.13,inactive: 1.97

# Looked up one by one from above, 2 records:
Compound,TEAD-luciferase reporter activity (compound concentration: 200 nM),TEAD-luciferase reporter activity (compound concentration: 2 uM),TEAD-luciferase reporter activity (compound concentration: 10 uM)
O=C(Nc1ccccc1)N[C@@H]1C(=O)N(CC23CC4CC(CC(C4)C2)C3)c2ccccc2N(c2ccccc2)C1=O,inactive: -1.72,inactive: -1.33,inactive: -0.887
CC1=C(CC/C(C)=C/CCC2=CC[C@H](C3=CC(=O)O[C@H]3O)O[C@H]2O)C(C)(C)CCC1 [Manoalide],inactive: -0.963,inactive: -0.772,inactive: 0.307
